From article PMC6925144, “A prospective compound screening contest identified broader inhibitors for Sirtuin 1” (Scientific Reports, 2019)
In all, about 3,200 compounds were measured (“TSA(with NAD+) / Primary screening (TSA) / delta Tm (K)”: median about -0.04, highest 2% from about 0.37 on). This is one part of the list.

Protein sequences, listed by entry. Tags and fused reporters are not part of them. Residues count along the entry.
UniProt Q96EB6, 2-747 limits assumed: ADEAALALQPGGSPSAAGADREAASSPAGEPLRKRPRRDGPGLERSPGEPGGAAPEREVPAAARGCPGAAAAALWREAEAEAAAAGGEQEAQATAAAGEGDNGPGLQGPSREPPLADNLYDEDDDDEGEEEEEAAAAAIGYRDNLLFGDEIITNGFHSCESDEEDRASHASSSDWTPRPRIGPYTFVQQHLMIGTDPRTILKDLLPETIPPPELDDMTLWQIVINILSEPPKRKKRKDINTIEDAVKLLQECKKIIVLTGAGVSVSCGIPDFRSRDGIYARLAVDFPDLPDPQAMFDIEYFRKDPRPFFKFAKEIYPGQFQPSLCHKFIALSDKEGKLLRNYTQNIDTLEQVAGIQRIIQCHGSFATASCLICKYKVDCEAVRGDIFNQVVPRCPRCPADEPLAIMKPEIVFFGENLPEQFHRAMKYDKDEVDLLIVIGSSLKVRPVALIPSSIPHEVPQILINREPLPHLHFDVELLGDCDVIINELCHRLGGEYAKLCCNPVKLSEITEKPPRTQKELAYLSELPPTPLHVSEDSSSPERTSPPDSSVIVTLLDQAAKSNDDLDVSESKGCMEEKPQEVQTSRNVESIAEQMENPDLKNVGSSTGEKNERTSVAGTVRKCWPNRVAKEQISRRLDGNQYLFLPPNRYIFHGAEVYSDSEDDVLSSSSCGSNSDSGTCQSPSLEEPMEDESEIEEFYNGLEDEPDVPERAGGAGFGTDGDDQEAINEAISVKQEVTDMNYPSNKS

Target: NAD-dependent deacetylase Sirtuin 1 (human, UniProt Q96EB6)
Assay: primary screen, delta tm
Parameters: single well (n = 1, as 'the same TSA')
Details: 10 µM
Description: A total of 3,192 compounds extracted from the proposed lists were first screened by thermal shift assay (TSA), which determined a melting temperature shift (ΔTm) of Sirtuin 1 upon the addition of a test compound at a concentration of 10 µM (n = 1) with primary hit criteria of ΔTm > 0.45 K or ΔTm < −1.5 K. Primary hits (48 compounds) were retested in the same assay at three concentrations (5, 10, 20 µM, n = 4) for hit confirmation and for dose-dependency check. Secondary hits (41 compounds) were checked their selectivity for Sirtuin 1 based on counterscreening on unrelated protein targets (bovine carbonic anhydrase (CA) and recombinant SH2 domain of hABL1 kinase (ABL1)) at three different concentrations (5, 10, 20 µM, n = 4), which yielded 38 hit compounds, hereafter referred to as TSA hits. The TSA screening above was conducted in the absence of NAD+. As noted, the structure of Sirtuin 1 is different in the presence of NAD+ and substrate. The chemical profile of TSA hits found from the different conditions could be different. […] As a result, 39 TSA hits were found.

In order of rising “TSA(with NAD+) / Primary screening (TSA) / delta Tm (K)” value:
1. O=C1NC(=O)C(=Cc2ccc(-c3ccc(Cl)c(Cl)c3)o2)C(=O)N1  -0.62 K
2. CN(C)CCOc1ccc(C(N)=S)cc1  -0.22 K
3. O=C1CN(c2ccc(NC(=O)CCCc3nc4ccccc4[nH]3)cn2)CCN1  -0.21 K
4. CC1(C)CC1N (centres unmarked)  -0.18 K
5. CC(C)(C)CC(N)CN (centres unmarked)  -0.18 K
6. Cc1cccc(Cl)c1OCC(=O)NCC(F)(F)F  -0.18 K
7. COc1cccc(C2=N/C(=C/c3cccnc3)C(=O)O2)c1  -0.18 K
8. COc1ccnc(N(C)C[C@H](O)CO)n1  -0.18 K
9. C=CCNc1ccc2nnc(C(F)(F)F)n2n1  -0.18 K
10. NC(=O)c1c(NC(=O)CSc2nc3sc4c(c3c(=O)n2-c2ccccc2)CCC4)sc2c1CCC2  -0.16 K
11. CS(=O)c1ccc(C(=O)Nc2ccccc2NC(=O)N2CCCC2)cc1 (centres unmarked)  -0.15 K
12. CCOc1nc2cc(C(=O)O[C@H]3CCOC3)ccc2[nH]1  -0.15 K
13. COc1ccnc(C(=O)NCC(C)(C)N2CCC(N(C)C)CC2)c1  -0.14 K
14. O=C(Nc1cc2c(=O)[nH]cnc2cc1F)c1cccc(Cl)c1F  -0.14 K
15. COc1ccccc1CC(=O)Nc1cc2c(=O)[nH]cnc2cc1F  -0.13 K
16. CC1(c2cccc(NC(=O)c3ccc4c(c3)CCC4)c2)NC(=O)NC1=O (centres unmarked)  -0.13 K
17. C=CCCCCN  -0.13 K
18. Cc1ccc(C)n1-c1sc2c(c1C#N)CCCC2  -0.12 K
19. Cc1ccccc1OC(=O)C1CCN(S(=O)(=O)c2cc(C(N)=O)n(C)c2)CC1  -0.12 K
20. Cc1ccc(N(C)S(=O)(=O)c2cccc(C(=O)N(C)Cc3ccccc3Cl)c2)cc1  -0.11 K
21. Cn1c(=O)c2c(ncn2CC(=O)OCc2cc(=O)n3c(n2)sc2ccccc23)n(C)c1=O  -0.11 K
22. COc1ccccc1N1C(=O)CC(Nc2ccc(C(=O)O)cc2)C1=O (centres unmarked)  -0.11 K
23. C=C(C)CNC(=S)NC(C)c1cccc(NC(=O)c2ccccc2)c1 (centres unmarked)  -0.09 K
24. c1ccc2c(c1)oc1c(N3CCN(Cc4cn5ccccc5n4)CC3)ncnc12  -0.09 K
25. NCCCCF  -0.09 K
26. O=C(CSc1nnc(NCc2ccco2)s1)N1CCN(Cc2cccc3ccccc23)CC1  -0.09 K
27. Cc1ccc(N(C)S(=O)(=O)c2cccc(C(=O)Nc3ccccc3C(F)(F)F)c2)cc1  -0.09 K
28. CC(OC(=O)CCc1nc2ccccc2c(=O)[nH]1)C(=O)NCc1ccco1 (centres unmarked)  -0.06 K
29. Cc1ccccc1C(=O)NCC(=O)OC(C)C(=O)NCc1ccco1 (centres unmarked)  -0.06 K
30. CCCCCCOc1ccc(C=C2C(=O)NC(=S)NC2=O)cc1  -0.05 K
31. O=C(CN(Cc1ccco1)C(=O)Cc1coc2cc(O)ccc12)Nc1ccccc1C(F)(F)F  -0.03 K
32. O=c1cc(COc2cccc([N+](=O)[O-])c2)nc2ccccn12  -0.03 K
33. Cn1c(=O)c2ccccc2n2c(COC(=O)Cn3nc(-c4ccc(F)cc4)oc3=O)nnc12  -0.03 K
34. O=C(CSc1nnc(NCc2ccco2)s1)Nc1ccc(N2CCCC2=O)cc1  -0.03 K
35. O=c1[nH]cnc2c1ncn2-c1ccccc1  -0.02 K
36. COc1ccc(NC(=O)C(=O)c2c(C)nn(-c3ccccc3)c2C)cc1OCc1cn2ccccc2n1  -0.02 K
37. Cn1ccnc1C(NCc1csc(-c2ccsc2)n1)c1cccc(F)c1 (centres unmarked)  -0.01 K
38. CC(N)(CN)C1CC1 (centres unmarked)  -0.01 K
39. CCc1ccc2c(COC(=O)c3cccc(S(=O)(=O)N(C)c4ccccc4)c3)cc(=O)oc2c1  -0.01 K
40. Cc1onc(-c2ccccc2)c1-c1nnc(CN2C(=O)c3ccc([N+](=O)[O-])cc3C2=O)o1  -0.01 K
41. CN(c1ccccc1)S(=O)(=O)c1cccc(NCC(=O)Nc2ccc(Br)cc2)c1  -0.01 K
42. Cc1nc(N2CCC(C(N)=O)CC2)c2c3c(sc2n1)CCC3  0.01 K
43. CCn1c(-c2ccccc2)c(C(=O)CCl)c2ccccc21  0.01 K
44. CCC(=O)NN  0.01 K
45. COc1cccc(C2C(C(=O)c3cc4ccccc4o3)=C(O)C(=O)N2CCCN2CCOCC2)c1 (centres unmarked)  0.03 K
46. Cc1cc(C)n(CC(=O)N/N=C/c2cn(-c3ccccc3)nc2-c2cc3ccccc3oc2=O)n1  0.03 K
47. O[C@@H]1CCN(c2ncnc3ccsc23)C1  0.03 K
48. CCC(N)C(N)=O (centres unmarked)  0.03 K
49. NC(=O)c1ccc(S(=O)(=O)N2CCN(c3ncnc4ccccc34)CC2)o1  0.05 K
50. CC(O)CNc1ncnc2ccsc12 (centres unmarked)  0.05 K
51. COc1cc(-c2nc(-c3ccccc3)c(-c3ccccc3)[nH]2)ccc1OS(=O)(=O)c1ccc(C)cc1  0.05 K
52. NC(=O)c1ccc(/C=C/C(=O)N2CCC(C(=O)O)(c3ccccc3)CC2)cc1  0.06 K
53. c1nc(N2CCCC3(C2)OCCO3)c2sccc2n1  0.06 K
54. Cc1cc(CSc2nc3ccccc3[nH]2)no1  0.06 K
55. O=C(NCc1cccc(NC(=O)C2CC2)c1)c1ccc(C(=O)c2ccccc2)cc1  0.06 K
56. Nc1ccc2c(c1)ncn2-c1ccccc1  0.07 K
57. CN(c1ccccc1)S(=O)(=O)c1cccc(C(=O)Nc2ccc(Br)cc2Cl)c1  0.07 K
58. CCC(C)(N)CC  0.08 K
59. NC(=O)c1ccc(COC(=O)c2ccccc2NC(=O)c2ccco2)cc1  0.09 K
60. CC(c1nc(-c2ccccc2)no1)N1CCN(c2nc(C(F)(F)F)nc3ccccc23)CC1 (centres unmarked)  0.16 K
61. NC(=O)c1ccnc(N2CCN(CCO)CC2)c1  0.25 K
62. O=C(Nc1cccc(S(=O)(=O)N2CCOCC2)c1)c1cn(-c2ccccc2)nc1-c1ccc(F)cc1  0.39 K
